These results are taken from article doi:10.1101/2023.05.28.542642.

Sequences of proteins named here, by UniProt entry; tags and fusion partners are left off. A change or cut given only in a name is not applied to a line headed by its entry.
UniProt P21707, whole entry, looked up, stated change not applied: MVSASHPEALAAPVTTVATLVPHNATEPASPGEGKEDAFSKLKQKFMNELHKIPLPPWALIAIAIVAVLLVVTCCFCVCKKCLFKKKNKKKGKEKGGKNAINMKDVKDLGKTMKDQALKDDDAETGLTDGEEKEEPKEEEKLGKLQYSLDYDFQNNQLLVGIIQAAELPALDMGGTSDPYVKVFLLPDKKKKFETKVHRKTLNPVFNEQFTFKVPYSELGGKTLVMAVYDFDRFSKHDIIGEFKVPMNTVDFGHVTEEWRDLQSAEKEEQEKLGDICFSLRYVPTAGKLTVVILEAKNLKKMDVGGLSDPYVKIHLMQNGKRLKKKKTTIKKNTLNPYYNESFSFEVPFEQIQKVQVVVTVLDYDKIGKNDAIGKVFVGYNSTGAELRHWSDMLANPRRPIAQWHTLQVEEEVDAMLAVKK

Results are given in words; binding and its absence hold for the method and conditions named.

The assay concerns the target C2AB domain of synaptotagmin-1 (aa 97-421) labeled with Alexa Fluor 488 at S342C (Rattus norvegicus) (UniProt P21707). Nature of the assay: fluorescence polarisation.

For the molecule KKKKKRFSFKKSFKLSGFSFKKNKK [MARCKS effector domain (aa 151-175)], the binding entry is reported as “no binding”.
